Hit rate of the full screen: of about 320,000 compounds, about 22,000 (6.9%) were called active. The inconclusive results got no clear call from the source; some entries with a clear call stand among them for comparison. The call rests on the fitted dose curve; in most records, active means well fitted inhibition curve with a large enough effect; inconclusive means small, poorly fitted or top-dose-only effect, or another doubt; inactive means no such curve, though single readings can be large or run the other way. Potencies beside an inconclusive call are fits to weak or partial responses and may not hold up. Where a SMILES comes first, the peptide text is derived from it. [ ]: non-standard residue; d: D form. The star is where a group is joined. ξ: configuration not given here. ξY = NC(Cc1ccc(O)cc1)C(=O)O; Cbz = O=C(OCc1ccccc1)*; OtBu = CC(C)(C)O*; tBu = CC(C)(C)*
Test: Primary qHTS for delayed death inhibitors of the malarial parasite plastid, 96 hour incubation
Settings: P. falciparum luciferase reporter growth; series mostly up to 28.7 µM; activity change, negative = inhibition: at the top concentration
Summary of the method: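 Erythrocytes infected with luciferase-expressing P. falciparum were dispensed at 2% hematocrit and 0.05% parasitemia (final), then incubated with compounds 96 hours at 37 C in 5% CO2. Luminescence after detection reagent addition reported growth.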
On the % scale 0 is the no-effect control and ±100 the full control effect; potency means the concentration at half of the fitted maximal effect.

SMILES | Potency | activity change, negative = inhibition
CCCCSc1nc(C)cc(SCC(=O)N/N=C/c2cccc(OC)c2O)n1 | inconclusive: 14.7 µM [inhibitor, partial curve, poor fit] | 
CCCCN(Cc1ccccc1)C(=O)CCN1C(=O)C2C3C=CC(C3)C2C1=O (configuration not stated) |  | inactive: 19.1%
N#Cc1ccccc1NS(=O)(=O)c1cc2c3c(c1)CCN3C(=O)CC2 | inconclusive: 9.28 µM [inhibitor, partial curve, poor fit] | 
Cc1nnsc1C(=O)N/N=C/c1ccc2ccccc2c1O | active: 3.29 µM | 
Nn1c(COc2ccccc2F)nnc1SCC(=O)NC1CCCC1 | inconclusive: 18.5 µM [inhibitor, partial curve, poor fit] | 
Nc1cc(C(=O)OCC(=O)N2CCOCC2)ccc1Cl |  | inactive: 99.4%
O=C(/C=C/c1ccc2ccccc2n1)N1CCN(c2ccccc2)CC1 |  | inactive: -3.73%
Cc1cc2ccccn2c1C(=O)c1cc([N+](=O)[O-])cc([N+](=O)[O-])c1 | inconclusive: 14.7 µM [inhibitor, single point] | 
CC(=O)c1c(C)[nH]c(C(=O)OCC(=O)NCCC2=CCCCC2)c1C | inconclusive: 9.28 µM [inhibitor, partial curve, poor fit] | 
COc1ccccc1CC(=O)Nc1cccc2ccccc12 | inconclusive: 20.8 µM [inhibitor, partial curve, poor fit] | 
O=[N+]([O-])c1cc(C(F)(F)F)cc([N+](=O)[O-])c1NCCNC(=S)Nc1ccc(Cl)c(Cl)c1 | inconclusive: 18.5 µM [inhibitor, single point] | 
Cc1nnc(SCC(=O)Nc2nnc(SCc3cccc(Br)c3)s2)s1 | active: 7.38 µM | 
COCCN(C(=O)COC(=O)Cc1coc2cc3c(cc12)CCC3)c1c(N)n(Cc2ccccc2)c(=O)[nH]c1=O |  | inactive: 4.37%
CCOc1ccc(NC(=O)CNC(=O)c2ccc([N+](=O)[O-])cc2)cc1 | inconclusive: 14.7 µM [inhibitor, partial curve, poor fit] | 
Cc1occc1C(=O)N1CCCc2ccccc21 | active: 10.4 µM | 
O=C(Cc1ccc(Cl)cc1)N/N=C/c1c(Cl)cccc1Cl |  | inactive: 17.5%
CCC(CNc1cc(OC)cc2cccnc12)NC1CCCCC1 (configuration not stated) | inconclusive: 8.28 µM [inhibitor, partial curve, poor fit] | 
Cc1ccc(S(=O)(=O)NCCC(=O)N(C)Cc2cccs2)cc1 | inconclusive: 18.5 µM [inhibitor, single point] | 
CC1(C)Cc2c(sc(NC(=O)c3ccc(C(=O)c4ccccc4)cc3)c2C(N)=O)C(C)(C)N1 | inconclusive: 9.28 µM [inhibitor, single point] | 
CCOC(=O)[C@H]1[C@H]2COc3ccc(Br)cc3[C@@H]2N2C(=O)CN(Cc3ccc(F)cc3)C(=O)[C@@]12C | inconclusive: 2.62 µM [inhibitor, full curve, poor fit] | 
CC(CC(F)(F)F)N1CCC(n2nccc2NC(=O)CCCc2ccccc2)CC1 (configuration not stated) | inconclusive: 14.7 µM [inhibitor, single point] | 
Cc1nc2ccc(NC(=O)N3CCSCC3)cc2nc1C | inconclusive: 3.7 µM [inhibitor, partial curve, poor fit] | 
O=C1N/C(=C/c2ccsc2)C(=O)N1c1ccccc1 | inconclusive: 5.22 µM [inhibitor, partial curve, poor fit] | 

SMILES | Potency | activity change, negative = inhibition
CC1CCN(C(=O)CSc2nnc(-c3ccncc3)n2C)CC1 | inconclusive: 14.7 µM [inhibitor, single point] | 
CCc1cc(C(=O)N2CCN(c3ncccn3)CC2)sc1C |  | inactive: -9.82%
O=C(O)C1(S(=O)(=O)c2ccc(Cl)cc2)CCC1 |  | inactive: 49.7%
CC(C)NC(=S)N/N=C1\CCCCc2ccccc21 | inconclusive: 18.5 µM [inhibitor, single point] | 
CC1CN(S(=O)(=O)c2ccc(CN3C(=O)c4cccnc4C3=O)cc2)c2ccccc2O1 (configuration not stated) | inconclusive: 18.5 µM [inhibitor, single point] | 
COc1cc2c(cc1OC)C(C(C)C)=NC(C)(C)C2 | inconclusive: 0.657 µM [inhibitor, full curve, poor fit] | 
Cc1ccc(C(=O)N2CCN(c3ccc(Cl)cc3)CC2)cc1 |  | inactive: 18.7%
CCCC(=O)Nc1cccc2c1CCCC2 | inconclusive: 11.7 µM [inhibitor, single point] | 
Cc1cccc(NS(=O)(=O)c2cccc(C(=O)Nc3cccc(C(=O)O)c3)c2)c1 |  | inactive: 0%
CO/N=C/c1ccc(N2CCN(C(=O)c3cccc(Cl)c3)CC2)c([N+](=O)[O-])c1 | inconclusive: 0.0828 µM [inhibitor, full curve, poor fit] | 
CCC1CCCCN1CCCNC(=O)C1CCC(Cn2c(=O)[nH]c3ccccc3c2=O)CC1 (configuration not stated) | inconclusive: 18.5 µM [inhibitor, single point] | 
Cc1ccccc1NC(=O)/C(=C/c1ccccc1)c1ccccc1 |  | inactive: -2.45%
O=C(NCCN1CCNC1=O)C1CCC(=O)N(CCc2ccc(Cl)cc2)C1 (configuration not stated) | inconclusive: 4.15 µM [inhibitor, partial curve] | 
CCOC(=O)/C(C#N)=C/c1ccc(SC)cc1 | inconclusive: 11.7 µM [inhibitor, single point] | 
CCCc1cc(=O)oc2cc(C)cc(OCC(=O)NCc3ccccn3)c12 | active: 2.62 µM | 
S=c1[nH]cnc2sc(Nc3ccccc3)nc12 | inconclusive: 1.47 µM [inhibitor, full curve, poor fit] | 
COC(=O)c1ccc(COC(=O)C(CCS(C)(=O)=O)N2C(=O)c3ccccc3C2=O)cc1 (configuration not stated) | active: 6.57 µM | 
Cc1cc(CNC(=O)c2cccc(OC3CCN(S(=O)(=O)N(C)C)CC3)c2)on1 | inconclusive: 5.86 µM [inhibitor, partial curve, poor fit] | 
O=c1cc(CN2CCN(c3ccccc3O)CC2)nc2sccn12 | inconclusive: 18.5 µM [inhibitor, single point] | 
COc1ccc(CCNC(=O)c2ccc(Cl)c(S(=O)(=O)N(C)c3ccccc3)c2)cc1 | active: 10.4 µM | 
N#Cc1nc(-c2ccccc2)oc1N1CCC(C(N)=O)CC1 | inconclusive: 18.5 µM [inhibitor, single point] | 
Cc1c(-c2ccccc2)oc2c(C(=O)OCC(=O)Nc3ccc(C(N)=O)cc3)cccc2c1=O |  | inactive: -11.3%
COc1ccccc1C(CC(=O)O)NS(=O)(=O)c1ccc2c(c1)N(C(C)=O)CC(C)O2 (configuration not stated) | inconclusive: 8.28 µM [inhibitor, partial curve, poor fit] | 

SMILES | Potency | activity change, negative = inhibition
O=C(NCC(=O)N1CCC2(CC1)NCCc1[nH]cnc12)c1cccc(Cl)c1 |  | inactive: 6.62%
CC(C)(C)C(=O)Nc1ccccc1C(=O)NCCC(=O)Nc1ccccc1 | inconclusive: 18.5 µM [inhibitor, single point] | 
C=CCN(C(=O)c1cccc(N2C(=O)C3CC=CC(C)C3C2=O)c1)c1ccccc1 (configuration not stated) |  | inactive: 43.5%
Cc1cc2nc3n(c2cc1C)CC1CC(C(=O)NCC2CC2)N(C)C31 (configuration not stated) | inconclusive: 0.0026 µM [inhibitor, full curve, poor fit] | 
CCN(CCn1cccn1)Cc1nc(-c2ccccc2)no1 | inconclusive: 10.4 µM [inhibitor, single point] | 
CCN(CC)CCn1c(NC(=O)c2ccc(C(F)(F)F)cc2)nc2ccccc21 | inconclusive: 3.29 µM [inhibitor, single point] | 
Cc1cc(NC(=O)CCN2CCN(C/C=C/c3ccccc3)CC2)ccc1Br |  | inactive: -15.5%
CCOC(=O)C(C)Oc1c(Br)cc(C2NC(=O)NC(C)=C2C(C)=O)cc1OCC (configuration not stated) | inconclusive: 14.7 µM [inhibitor, partial curve, poor fit] | 
CC(C)(C)OC(=O)C(Cc1ccc(OC(C)(C)C)cc1)NC(=O)CNC(=O)CNC(=O)OCc1ccccc1 (stereo not drawn) (Cbz-Gly-Gly-[ξY](tBu)-OtBu) | inconclusive: 9.28 µM [inhibitor, partial curve, poor fit] | 
Cc1ccccc1COC(=O)c1cc([N+](=O)[O-])ccc1N1CCOCC1 | inconclusive: 8.28 µM [inhibitor, partial curve] | 
CCOc1ccc(/C=C/C(=O)c2ccccc2)cc1OC |  | inactive: -12.3%
CCCC[N+]12C3C[C@H](C4[C@H](O)[C@]5(C[C@@H]41)c1ccccc1N(C)[C@@H]35)[C@H](CC)[C@H]2O (some centres not stated) | inconclusive: 14.7 µM [inhibitor, single point] | 
CCOC(=O)N1CCN(C(=O)c2cn(CC)c3ccc(S(=O)(=O)N4CCCC4)cc3c2=O)CC1 | inconclusive: 10.4 µM [inhibitor, single point] | 
C=CCOc1ccc(CNc2ccc3[nH]c(=O)[nH]c3c2)cc1 | inconclusive: 10.4 µM [inhibitor, single point] | 
CC1(C)CC(=O)C=C(NC2CC(C)(C)NC(C)(C)C2)C1 | inconclusive: 4.15 µM [inhibitor, single point] | 
CCOC(=O)c1cc2c(s1)-c1c(C)cccc1OC2 | inconclusive: 18.5 µM [inhibitor, single point] | 
COc1ccccc1NC(=O)COC(=O)C1CC2C=CC1C2 (configuration not stated) |  | inactive: 61%
COC(=O)c1sccc1NC(=O)C1C2C=CC(C2)C1C(=O)O (configuration not stated) |  | inactive: 16.9%
COC(=O)c1nnn(-c2nonc2N)c1CSc1nnc(C)s1 | inconclusive: 2.94 µM [inhibitor, partial curve] | 
Cc1cc(C)c2nc(N3CCC(C(=O)NCCN4CCOCC4)CC3)sc2c1 | inconclusive: 14.7 µM [inhibitor, partial curve, poor fit] | 
N#CC1=C(N)Oc2c(oc(CO)cc2=O)C1c1cccs1 (configuration not stated) | inconclusive: 11.7 µM [inhibitor, partial curve, poor fit] | 

Single entries from the entries so far:
Entry of `Cc1ccccc1COC(=O)c1cc([N+](=O)[O-])ccc1N1CCOCC1` under Potency: inconclusive: 8.28 µM [inhibitor, partial curve]
Entry of `CCOc1ccc(/C=C/C(=O)c2ccccc2)cc1OC` under activity change, negative = inhibition: inactive: -12.3%

Reference: PubChem BioAssay AID504834 (National Center for Advancing Translational Sciences (NCATS), 2011)
